Laboratory results taken from paper PMC7686350.
Results are given in words; binding and its absence hold for the method and conditions named. In cells and extracts the contact can be indirect. Some results given as binding are weak or reduced against the parent protein; the word gives no strength.

Chains of the proteins cited; added tags and fusions are not shown.
UniProt P13864: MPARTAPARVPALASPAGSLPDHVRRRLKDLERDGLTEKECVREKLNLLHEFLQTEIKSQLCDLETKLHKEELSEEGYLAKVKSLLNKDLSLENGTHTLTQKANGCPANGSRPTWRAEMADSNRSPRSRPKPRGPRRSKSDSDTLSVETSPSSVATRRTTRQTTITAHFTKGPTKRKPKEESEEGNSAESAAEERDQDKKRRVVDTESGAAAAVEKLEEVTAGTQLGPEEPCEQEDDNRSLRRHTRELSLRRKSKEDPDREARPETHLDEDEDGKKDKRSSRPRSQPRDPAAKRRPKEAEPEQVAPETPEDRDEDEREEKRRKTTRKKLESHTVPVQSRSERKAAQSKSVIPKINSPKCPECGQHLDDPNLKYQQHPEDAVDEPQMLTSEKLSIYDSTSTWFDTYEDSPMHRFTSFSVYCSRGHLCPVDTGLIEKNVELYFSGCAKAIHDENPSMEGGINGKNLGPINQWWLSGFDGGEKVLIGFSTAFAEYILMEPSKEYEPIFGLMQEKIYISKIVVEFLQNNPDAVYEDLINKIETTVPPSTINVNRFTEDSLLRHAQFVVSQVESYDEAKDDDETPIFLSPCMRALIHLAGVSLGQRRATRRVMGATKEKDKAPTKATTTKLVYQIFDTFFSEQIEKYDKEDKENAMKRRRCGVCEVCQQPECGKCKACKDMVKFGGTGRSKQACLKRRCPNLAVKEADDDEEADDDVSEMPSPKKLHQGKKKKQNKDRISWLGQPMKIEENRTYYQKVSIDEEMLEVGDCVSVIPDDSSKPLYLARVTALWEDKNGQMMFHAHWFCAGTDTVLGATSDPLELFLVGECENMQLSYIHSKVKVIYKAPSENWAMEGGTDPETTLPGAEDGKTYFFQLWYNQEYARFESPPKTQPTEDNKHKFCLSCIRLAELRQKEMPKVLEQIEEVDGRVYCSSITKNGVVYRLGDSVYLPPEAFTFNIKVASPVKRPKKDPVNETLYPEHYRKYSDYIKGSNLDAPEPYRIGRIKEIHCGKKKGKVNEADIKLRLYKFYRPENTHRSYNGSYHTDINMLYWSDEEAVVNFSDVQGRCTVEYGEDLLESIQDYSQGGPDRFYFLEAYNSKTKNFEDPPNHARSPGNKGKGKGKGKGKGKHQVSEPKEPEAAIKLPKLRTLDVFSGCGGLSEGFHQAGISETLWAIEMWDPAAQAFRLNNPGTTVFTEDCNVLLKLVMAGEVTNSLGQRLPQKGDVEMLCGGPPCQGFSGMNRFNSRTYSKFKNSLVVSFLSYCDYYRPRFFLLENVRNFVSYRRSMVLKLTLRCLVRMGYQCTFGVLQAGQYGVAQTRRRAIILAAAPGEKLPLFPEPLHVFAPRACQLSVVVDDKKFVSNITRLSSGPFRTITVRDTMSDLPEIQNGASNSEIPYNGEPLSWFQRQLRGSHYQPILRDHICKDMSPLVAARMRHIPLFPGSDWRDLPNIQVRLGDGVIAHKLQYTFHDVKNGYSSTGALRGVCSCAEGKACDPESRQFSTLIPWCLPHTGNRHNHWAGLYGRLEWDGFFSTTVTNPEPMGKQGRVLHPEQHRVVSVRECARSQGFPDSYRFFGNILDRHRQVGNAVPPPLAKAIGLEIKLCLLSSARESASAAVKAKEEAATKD

Target: T1, Small Heterodimer Partner (SHP/NR0B2), endogenous in mouse liver (mouse (endogenous in mouse liver)) (UniProt Q62227)
T1 sequence: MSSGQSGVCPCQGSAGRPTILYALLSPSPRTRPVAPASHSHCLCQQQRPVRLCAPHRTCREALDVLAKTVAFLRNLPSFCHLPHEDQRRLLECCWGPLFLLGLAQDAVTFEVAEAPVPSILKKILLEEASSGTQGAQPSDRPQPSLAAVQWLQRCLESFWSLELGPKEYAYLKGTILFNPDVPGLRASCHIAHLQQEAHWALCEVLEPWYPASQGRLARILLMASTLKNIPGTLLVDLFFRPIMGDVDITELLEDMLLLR
Test: co-IP; mouse liver extracts; mice fasted overnight and treated with vehicle or FGF19 for 2 h, or refed normal chow for the indicated times (C57BL/6, FGF15-KO mice or littermates); CoIP buffer 50 mM Tris-HCl pH 8.0, 150 mM NaCl, 2 mM EDTA, 0.5% NP-40, 5% glycerol; 1-2 ug antibody 3 h, protein G agarose; bound proteins detected by IB

binding	Substance
no binding	DNMT1, endogenous in mouse liver (from UniProt P13864 1-1620) (enzyme)
binds	DNMT3B, endogenous in mouse liver (from UniProt O88509 1-859) (enzyme)
